Assay results reported in paper PMC6716783.
No constants are given. Whether binding was seen depends on the method and setting. Binding seen in cells or lysates may run through a third protein. Some binding calls cover weakened binding; strength is not graded here.

Amino acid sequences for entries named in this document (tags omitted). A change or cut given only in a name is not applied to a line headed by its entry. Chains listed by the source or under a name are the forms on record and can include a tag or linker. Residues count along the entry.
PK-tagged SNAP-GLP-1R wild type (P43220, residues 24-463): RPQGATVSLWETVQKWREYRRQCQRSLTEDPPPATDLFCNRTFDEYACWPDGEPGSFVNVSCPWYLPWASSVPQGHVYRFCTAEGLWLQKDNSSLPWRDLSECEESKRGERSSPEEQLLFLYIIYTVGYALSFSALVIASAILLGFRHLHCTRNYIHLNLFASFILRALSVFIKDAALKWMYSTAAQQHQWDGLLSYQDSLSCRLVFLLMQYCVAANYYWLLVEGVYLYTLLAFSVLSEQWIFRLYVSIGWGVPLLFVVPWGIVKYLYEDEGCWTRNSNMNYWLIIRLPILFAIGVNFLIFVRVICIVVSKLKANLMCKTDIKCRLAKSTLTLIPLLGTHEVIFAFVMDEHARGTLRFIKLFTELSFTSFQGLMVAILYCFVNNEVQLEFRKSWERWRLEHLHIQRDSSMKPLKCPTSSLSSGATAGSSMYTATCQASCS
PK-tagged SNAP-GLP-1R C438A (P43220, form named): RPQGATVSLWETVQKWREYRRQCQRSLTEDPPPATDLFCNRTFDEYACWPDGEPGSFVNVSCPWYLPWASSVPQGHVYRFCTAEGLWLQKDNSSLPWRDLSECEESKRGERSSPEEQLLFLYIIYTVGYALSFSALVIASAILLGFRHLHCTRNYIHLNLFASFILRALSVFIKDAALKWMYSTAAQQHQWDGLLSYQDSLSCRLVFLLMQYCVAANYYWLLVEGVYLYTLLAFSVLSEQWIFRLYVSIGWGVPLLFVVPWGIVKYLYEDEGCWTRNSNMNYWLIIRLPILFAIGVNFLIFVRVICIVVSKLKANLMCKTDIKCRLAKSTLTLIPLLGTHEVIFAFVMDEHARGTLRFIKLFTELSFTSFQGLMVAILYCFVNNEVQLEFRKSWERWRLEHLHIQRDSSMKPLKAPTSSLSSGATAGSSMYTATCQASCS

How the values were obtained:
Experiment in all cases: split reporter
[1] = target: ProLink (PK)-tagged human GLP-1R (human) (UniProt P43220)
[2] = target: PK-tagged SNAP-GLP-1R C438A (human) (UniProt P43220)
[3] = target: PK-tagged SNAP-GLP-1R wild type (human) (UniProt P43220)

Measured: binding

beta-arrestin-2 fused to EA (beta-arrestin-2-EA) (from UniProt P32121 1-409)
binds: all assays above
